For two substances, step yield results are on record in patent publication US6504005B1 (Yeda Research and Development Co. Ltd., priority 1996, dated 2003).

The data set is described as follows: peptide synthesis. The settings on record: late stage modification step.
The mark [1] stands for this setting: Based on pure material obtained following HPLC.

“Gly^A1, Phe^B1, Lys^B29-N-(Fmoc)3-insulin”: under setting [1], the step yield is 30%.

As for Phe^B1, Lys^B29-N-(Fmoc)2-insulin, the step yield entry is listed as “˜50%”. This substance gave a step yield under setting [1] of 14%.
